{"source": "patent US20020002198A1", "about": "“Chemical synergy to elevate growth hormone release in vertebrates” (priority 2000, published 2002)", "origin": "cited, not measured here", "system": "GH release", "settings": "multi-gram levels at night; cited from earlier work", "note": "For at least one compound, name, drawing or mass did not settle the structure."}
{"molecule": "O=C(O)CCCO", "note": "[Gamma-hydroxybutyrate]", "values": [{"measurement": "Effect on normal GH release (in words)", "value": "can double normal GH release"}]}
